This is an account of results in publication PMC6312201.

Where a chain is given by its changes, count along the chain named. These are yes or no findings as the source states them, for the method shown. A result given as binding can be weak or reduced; the word gives no strength. Where a sequence is shown, tags or fusion partners need not be part of it.

Assay [1] has as its target T1, tyrosinase from Streptomyces castaneoglobisporus HUT6202 (Streptomyces castaneoglobisporus HUT6202) (UniProt Q83WS2).
T1 sequence: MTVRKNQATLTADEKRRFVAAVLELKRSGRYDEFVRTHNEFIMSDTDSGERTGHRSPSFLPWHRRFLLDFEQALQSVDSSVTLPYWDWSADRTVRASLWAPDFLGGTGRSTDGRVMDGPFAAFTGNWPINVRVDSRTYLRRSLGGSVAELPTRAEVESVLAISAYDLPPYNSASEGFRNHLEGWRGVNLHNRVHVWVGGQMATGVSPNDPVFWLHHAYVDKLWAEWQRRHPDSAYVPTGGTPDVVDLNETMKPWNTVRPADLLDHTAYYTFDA
The experiment in a line: crystal structure; crystals of the copper-free complex grown by sitting-drop vapor diffusion (25% PEG3350, 0.2 M NaNO3, 0.1 M Na-HEPES pH 6.5), soaked in CuSO4 and NH2OH at 25 °C (anaerobic or aerobic, 10 min to 24 h), cryo-trapped; synchrotron data, 1.16-1.70 Å; both purified.

The target of assay [2] is T2, H63F-mutated tyrosinase, in which the His63 residue is replaced with phenylalanine (Streptomyces castaneoglobisporus HUT6202) (UniProt Q83WS2).
T2 sequence: T1 sequence with H63F
The assay is described as above.

“caddie Y98F mutant, in which the Tyr98 residue is replaced with phenylalanine (Streptomyces castaneoglobisporus HUT6202)”: in assay [1], the binding result is recorded as “binds”.

For “caddie protein (orf378 gene product) from Streptomyces castaneoglobisporus HUT6202”, the binding entry in assay [2] and in assay [1] was “binds” throughout.
